Test results taken from patent US20260022160A1 (AFFYXELL THERAPEUTICS, published 2026).
No constants are given. Whether binding was seen depends on the method and setting. Some results given as binding are weak or reduced against the parent protein; the word gives no strength.

T1: human CD40L (human, UniProt P29965 113-261, limits assumed)
T1 sequence (looked up): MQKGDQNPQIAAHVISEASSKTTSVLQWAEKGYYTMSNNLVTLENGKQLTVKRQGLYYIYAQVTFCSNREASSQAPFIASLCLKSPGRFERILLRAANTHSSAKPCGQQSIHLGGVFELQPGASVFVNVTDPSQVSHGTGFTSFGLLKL

B1: stefin A protein variant clone 320 (designed binder)
chain: MIPGGLSEAKPATPEIQEIVDKVKPQLEEKTGETYGKLEAVQYKTQVVTAFAPNKASGTNYYIKVRAGDNKYMHLKVFKSLRYWAFRYLWEDLVLTGYQVDKNKDDELTGF
B2: stefin A protein variant clone 321 (designed binder)
chain: MIPGGLSEAKPATPEIQEIVDKVKPQLEEKTGETYGKLEAVQYKTQVVHYTDFKWHKGTNYYIKVRAGDNKYMHLKVFKSLPFWANEHGWEDLVLTGYQVDKNKDDELTGF
B3: stefin A protein variant clone 310 (designed binder)
chain: MIPGGLSEAKPATPEIQEIVDKVKPQLEEKTGETYGKLEAVQYKTQVVFKKWWWKYKGTNYYIKVRAGDNKYMHLKVFKSLRVDEHYIQFEDLVLTGYQVDKNKDDELTGF
B4: stefin A protein variant clone 317 (designed binder)
chain: MIPGGLSEAKPATPEIQEIVDKVKPQLEEKTGETYGKLEAVQYKTQVVWVSQQHYSHGTNYYIKVRAGDNKYMHLKVFKSLFAFRKYEDREDLVLTGYQVDKNKDDELTGF
B5: stefin A protein variant clone 328 (designed binder)
chain: MIPGGLSEAKPATPEIQEIVDKVKPQLEEKTGETYGKLEAVQYKTQVVVYKIITFWSGTNYYIKVRAGDNKYMHLKVFKSLEYPPVQQVLEDLVLTGYQVDKNKDDELTGF
B6: stefin A protein variant clone 298 (designed binder)
chain: MIPGGLSEAKPATPEIQEIVDKVKPQLEEKTGETYGKLEAVQYKTQVVHYRIITHWEGTNYYIKVRAGDNKYMHLKVFKSLVRAFLYYKDEDLVLTGYQVDKNKDDELTGF
B7: stefin A protein variant clone 296 (designed binder)
chain: MIPGGLSEAKPATPEIQEIVDKVKPQLEEKTGETYGKLEAVQYKTQVVNENVYRVTQGTNYYIKVRAGDNKYMHLKVFKSLKYRHRLTYEEDLVLTGYQVDKNKDDELTGF
B8: stefin A protein variant clone 314 (designed binder)
chain: MIPGGLSEAKPATPEIQEIVDKVKPQLEEKTGETYGKLEAVQYKTQVVRDWAYYIYFGTNYYIKVRAGDNKYMHLKVFKSLRSDTLHYWNEDLVLTGYQVDKNKDDELTGF
B9: stefin A protein variant clone 306 (designed binder)
chain: MIPGGLSEAKPATPEIQEIVDKVKPQLEEKTGETYGKLEAVQYKTQVVRVWPWTWDRGTNYYIKVRAGDNKYMHLKVFKSLEQWLPNPYFEDLVLTGYQVDKNKDDELTGF
B10: stefin A protein variant clone 301 (designed binder)
chain: MIPGGLSEAKPATPEIQEIVDKVKPQLEEKTGETYGKLEAVQYKTQVVGNVQEDWHIGTNYYIKVRAGDNKYMHLKVFKSLFSEDLTLNGEDLVLTGYQVDKNKDDELTGF
B11: stefin A protein variant clone 311 (designed binder)
chain: MIPGGLSEAKPATPEIQEIVDKVKPQLEEKTGETYGKLEAVQYKTQVVASQRLWIIYGTNYYIKVRAGDNKYMHLKVFKSLSDWRHHGGWEDLVLTGYQVDKNKDDELTGF
B12: stefin A protein variant clone 305 (designed binder)
chain: MIPGGLSEAKPATPEIQEIVDKVKPQLEEKTGETYGKLEAVQYKTQVVESYAAIFWGGTNYYIKVRAGDNKYMHLKVFKSLWGEIQHWRQEDLVLTGYQVDKNKDDELTGF
B13: stefin A protein variant clone 330 (designed binder)
chain: MIPGGLSEAKPATPEIQEIVDKVKPQLEEKTGETYGKLEAVQYKTQVVKTWEDTVVAGTNYYIKVRAGDNKYMHLKVFKSLEYLYRPLNPEDLVLTGYQVDKNKDDELTGF
B14: stefin A protein variant clone 318 (designed binder)
chain: MIPGGLSEAKPATPEIQEIVDKVKPQLEEKTGETYGKLEAVQYKTQVVDDDNQHYGLGTNYYIKVRAGDNKYMHLKVFKSLLHNWWKGNWEDLVLTGYQVDKNKDDELTGF
B15: stefin A protein variant clone 308 (designed binder)
chain: MIPGGLSEAKPATPEIQEIVDKVKPQLEEKTGETYGKLEAVQYKTQVVIGQISEQQWGTNYYIKVRAGDNKYMHLKVFKSLHRYWTRDVTEDLVLTGYQVDKNKDDELTGF
B16: stefin A protein variant clone 325 (designed binder)
chain: MIPGGLSEAKPATPEIQEIVDKVKPQLEEKTGETYGKLEAVQYKTQVVVATADLIKAGTNYYIKVRAGDNKYMHLKVFKSLPWHYPPNKWEDLVLTGYQVDKNKDDELTGF
B17: stefin A protein variant clone 302 (designed binder)
chain: MIPGGLSEAKPATPEIQEIVDKVKPQLEEKTGETYGKLEAVQYKTQVVGWSASYPESGTNYYIKVRAGDNKYMHLKVFKSLTQWEFIEWPEDLVLTGYQVDKNKDDELTGF
B18: stefin A protein variant clone 307 (designed binder)
chain: MIPGGLSEAKPATPEIQEIVDKVKPQLEEKTGETYGKLEAVQYKTQVVQVKKWWEYFVTNYYIKVRAGDNKYMHLKVFKSLQLLSHQWTEEDLVLTGYQVDKNKDDELTGF
B19: stefin A protein variant clone 297 (designed binder)
chain: MIPGGLSEAKPATPEIQEIVDKVKPQLEEKTGETYGKLEAVQYKTQVVWHKIVTQWPGTNYYIKVRAGDNKYMHLKVFKSLYAQRGEVYFEDLVLTGYQVDKNKDDELTGF
B20: stefin A protein variant clone 299 (designed binder)
chain: MIPGGLSEAKPATPEIQEIVDKVKPQLEEKTGETYGKLEAVQYKTQVVLVFDASTSAGTNYYIKVRAGDNKYMHLKVFKSLPWEFRGDHKEDLVLTGYQVDKNKDDELTGF
B21: stefin A protein variant clone 323 (designed binder)
chain: MIPGGLSEAKPATPEIQEIVDKVKPQLEEKTGETYGKLEAVQYKTQVVELDEPAWDWGTNYYIKVRAGDNKYMHLKVFKSLRQHKKPHPNEDLVLTGYQVDKNKDDELTGF
B22: stefin A protein variant clone 300 (designed binder)
chain: MIPGGLSEAKPATPEIQEIVDKVKPQLEEKTGETYGKLEAVQYKTQVVQYAEFLEHIGTNYYIKVRAGDNKYMHLKVFKSLGWSHYFQYLEDLVLTGYQVDKNKDDELTGF
B23: stefin A protein variant clone 315 (designed binder)
chain: MIPGGLSEAKPATPEIQEIVDKVKPQLEEKTGETYGKLEAVQYKTQVVIGYKLNYIWGTNYYIKVRAGDNKYMHLKVFKSLIQYRWQDRVEDLVLTGYQVDKNKDDELTGF
B24: stefin A protein variant clone 319 (designed binder)
chain: MIPGGLSEAKPATPEIQEIVDKVKPQLEEKTGETYGKLEAVQYKTQVVPTRWISIYWGTNYYIKVRAGDNKYMHLKVFKSLLNRYYHASIEDLVLTGYQVDKNKDDELTGF
B25: stefin A protein variant clone 327 (designed binder)
chain: MIPGGLSEAKPATPEIQEIVDKVKPQLEEKTGETYGKLEAVQYKTQVVHWHHYDNIIGTNYYIKVRAGDNKYMHLKVFKSLYQLVDLDLDEDLVLTGYQVDKNKDDELTGF
B26: stefin A protein variant clone 316 (designed binder)
chain: MIPGGLSEAKPATPEIQEIVDKVKPQLEEKTGETYGKLEAVQYKTQVVVSLTEQRWKGTNYYIKVRAGDNKYMHLKVFKSLFQPIKLANAEDLVLTGYQVDKNKDDELTGF
B27: stefin A protein variant clone 303 (designed binder)
chain: MIPGGLSEAKPATPEIQEIVDKVKPQLEEKTGETYGKLEAVQYKTQVVYQFEHISYGGTNYYIKVRAGDNKYMHLKVFKSLFTYRLPQHREDLVLTGYQVDKNKDDELTGF
B28: stefin A protein variant clone 304 (designed binder)
chain: MIPGGLSEAKPATPEIQEIVDKVKPQLEEKTGETYGKLEAVQYKTQVVAWITPVNVLGTNYYIKVRAGDNKYMHLKVFKSLDEIFHGAYNEDLVLTGYQVDKNKDDELTGF
B29: stefin A protein variant clone 324 (designed binder)
chain: MIPGGLSEAKPATPEIQEIVDKVKPQLEEKTGETYGKLEAVQYKTQVVHEKWGFWELGTNYYIKVRAGDNKYMHLKVFKSLHSHRFHEAHEDLVLTGYQVDKNKDDELTGF
B30: stefin A protein variant clone 322 (designed binder)
chain: MIPGGLSEAKPATPEIQEIVDKVKPQLEEKTGETYGKLEAVQYKTQVVNKFWSWAPGGTNYYIKVRAGDNKYMHLKVFKSLADSGFNATPEDLVLTGYQVDKNKDDELTGF
B31: stefin A protein variant clone 312 (designed binder)
chain: MIPGGLSEAKPATPEIQEIVDKVKPQLEEKTGETYGKLEAVQYKTQVVQRETHILWSGTNYYIKVRAGDNKYMHLKVFKSLWFDNLHNNFEDLVLTGYQVDKNKDDELTGF
B32: stefin A protein variant clone 329 (designed binder)
chain: MIPGGLSEAKPATPEIQEIVDKVKPQLEEKTGETYGKLEAVQYKTQVVGWIQRHNLIGTNYYIKVRAGDNKYMHLKVFKSLYSEPPPVQNEDLVLTGYQVDKNKDDELTGF
B33: stefin A protein variant clone 313 (designed binder)
chain: MIPGGLSEAKPATPEIQEIVDKVKPQLEEKTGETYGKLEAVQYKTQVVGQYWFWAPGGTNYYIKVRAGDNKYMHLKVFKSLPSSGGGPKWEDLVLTGYQVDKNKDDELTGF
B34: stefin A protein variant clone 309 (designed binder)
chain: MIPGGLSEAKPATPEIQEIVDKVKPQLEEKTGETYGKLEAVQYKTQVVAFHKLGWILGTNYYIKVRAGDNKYMHLKVFKSLGDESHKWHKEDLVLTGYQVDKNKDDELTGF
B35: stefin A protein variant clone 326 (designed binder)
chain: MIPGGLSEAKPATPEIQEIVDKVKPQLEEKTGETYGKLEAVQYKTQVVYYKVISWWHGTNYYIKVRAGDNKYMHLKVFKSLYKTPFPQYTEDLVLTGYQVDKNKDDELTGF

The binders below were run against T1, human CD40L (assay: ELISA, bacterial lysate on plate-bound human CD40L, anti-Myc tag detection).

binding | Binder
binds | B1
binds | B2
binds | B3
binds | B4
binds | B5
binds | B6
binds | B7
binds | B8
binds | B9
binds | B10
binds | B11
binds | B12
binds | B13
binds | B14
binds | B15
binds | B16
binds | B17
binds | B18

binding | Binder
binds | B19
binds | B20
binds | B21
binds | B22
binds | B23
binds | B24
binds | B25
binds | B26
binds | B27
binds | B28
binds | B29
binds | B30
binds | B31
binds | B32
binds | B33
binds | B34
binds | B35
